Reference: PubChem BioAssay AID743454 (Peter MacCallum Cancer Centre, 2014)

- Screen: 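Knock-downs lowering viability or raising caspase 3/7 activity in vorinostat-treated resistant cells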 (primary screen)
- System: human HCT116-VR colon cancer cells, selected for vorinostat resistance
- Reagents: siRNA pool against human genes, 40 nM siRNA pool
- Duration: vorinostat for 24 h, read-out about 72 h after transfection
- Treatment: vorinostat at 2.5 µM final
- Measured: 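Two measures, CellTiter-Fluor viability and luminescent caspase 3/7 activity, each as fold change against same-plate mock wells, mean of duplicates, then screen-wide robust z-score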
- Reading the numbers: viability robust z-score: higher = more viable cells than screen typical; caspase robust z-score: higher = more caspase 3/7 activity than screen typical
- Rule for the call: 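a knock-down is a hit when classed RV1 or RV2 for lowered viability, or CA1 or CA2 for caspase activation; those lethal without drug were dropped; hits were retested singly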
This is an unselected part of about 18,000 reagents. 450 of them (2.5%) were called active. 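Single biological run; no consistent viability z cut-off exists, so the class columns, not z-scores, define the calls.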

Knock-down of ZNF28 came out at: viability hit class no change; caspase hit class no change; viability robust z-score 1.48; caspase robust z-score 3.42; inactive.
ACTR3B scored viability hit class no change; caspase hit class no change; viability robust z-score 0.44; caspase robust z-score -0.04; inactive.
With knock-down of ARCN1, the screen gave viability hit class no change; caspase hit class no change; viability robust z-score -2.76; caspase robust z-score 2.35; inactive.
For UMPS the deposit lists viability hit class no change; caspase hit class no change; viability robust z-score 0.04; caspase robust z-score -0.48; inactive.
After knock-down of MXD3, the record shows viability hit class no change; caspase hit class no change; viability robust z-score 0.69; caspase robust z-score -0.62; inactive.

Laid out differently: entries from further up
| Gene | viability hit class | caspase hit class | viability robust z-score | caspase robust z-score | Outcome |
| --- | --- | --- | --- | --- | --- |
| ZNF28 | no change | no change | 1.48 | 3.42 | inactive |
| ACTR3B | no change | no change | 0.44 | -0.04 | inactive |

Further records follow.
Knock-down of KANSL1L gave: viability hit class no change; caspase hit class no change; viability robust z-score 0.07; caspase robust z-score -0.9; inactive.
TASP1 scored viability hit class no change; caspase hit class no change; viability robust z-score 0; caspase robust z-score 0.04; inactive.
SCG5 scored viability hit class no change; caspase hit class no change; viability robust z-score 1.22; caspase robust z-score -0.12; inactive.
With knock-down of RFC3, the record shows viability hit class no change; caspase hit class no change; viability robust z-score 0.52; caspase robust z-score 0.5; inactive.
With knock-down of SLC8B1, the screen gave viability hit class no change; caspase hit class no change; viability robust z-score 0.66; caspase robust z-score 0.15; inactive.
Knock-down of ZNF267 came out at: viability hit class no change; caspase hit class no change; viability robust z-score 0.98; caspase robust z-score 0.88; inactive.
Against OR51E1, the entry reads viability hit class no change; caspase hit class no change; viability robust z-score 1.07; caspase robust z-score -0.77; inactive.
